Consider 18 compounds from PubChem BioAssay AID192 (DTP/NCI, 2004).

This assay deals with BDF1 mice, B16 melanoma ip, median survival T/C. Description: NCI In Vivo Anticancer Drug Screen. Data for tumor model B16 Melanoma (intraperitoneal) in B6D2F1 (BDF1) mice. The conditions noted are these: T/C endpoint: median survival time, higher T/C = longer survival. The method in brief:
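Antitumor activity is assessed in mice bearing a transplanted tumor, with survival or tumor size compared against vehicle-dosed controls and expressed as T/C.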

[1] abbreviates: dose: 50.0 mg/kg/injection, schedule: Q01DX009 (ip), vehicle: Klucel (hydroxypropylcellulose) (HPC).
[2] abbreviates: dose: 25.0 mg/kg/injection, schedule: Q01DX009 (ip), vehicle: Klucel (hydroxypropylcellulose) (HPC).
Setting [3] is: dose: 100.0 mg/kg/injection, schedule: Q01DX009 (ip), vehicle: Klucel (hydroxypropylcellulose) (HPC).
The mark [4] stands for this setting: dose: 25.0 mg/kg/injection, schedule: Q01DX009 (ip), vehicle: saline.
Setting [5] is: dose: 100.0 mg/kg/injection, schedule: Q01DX009 (ip), vehicle: saline.
[6] abbreviates: dose: 50.0 mg/kg/injection, schedule: Q01DX009 (ip), vehicle: saline with Tween-80.
[7] abbreviates: dose: 100.0 mg/kg/injection, schedule: Q01DX009 (ip), vehicle: saline with Tween-80.
Setting [8] is: dose: 12.5 mg/kg/injection, schedule: Q01DX009 (ip), vehicle: carboxymethylcellulose (CMC).
[9] abbreviates: dose: 25.0 mg/kg/injection, schedule: Q01DX009 (ip), vehicle: carboxymethylcellulose (CMC).
[10] abbreviates: dose: 3.12 mg/kg/injection, schedule: Q01DX009 (ip), vehicle: Klucel (hydroxypropylcellulose) (HPC).
The mark [11] stands for this setting: dose: 12.5 mg/kg/injection, schedule: Q01DX009 (ip), vehicle: Klucel (hydroxypropylcellulose) (HPC).

The list does not hold the whole screen: it gathers tests that were run many times, whatever their T/C, doses with no T/C, and many T/C values between a quarter and a half above the control. Other doses and runs of a compound stand elsewhere. T/C gives the treated animals as a percentage of the vehicle group. Some doses have a count of surviving animals in place of a T/C: the source files T/C as zero there, which appears to mark a toxic dose or a test without result, not a measured value. Some survivor counts are full or nearly so, which does not show that the dose was tolerated: survival well below the control is almost never listed, so the zero probably covers shortened survival too. Counts of survivors are from the toxicity check (mostly the fifth day) where no day follows; animals may have died later. Schedule codes are those of the source, read here as Q, the interval in days (D) or hours (H), X, the number of doses. Some entries were tested several times; the results are listed from low to high. Some structures stand for samples that the source files as different forms (salt, stereo form or complex); doses refer to the form tested. Where survival is the endpoint, this PubChem deposit counts one and a half times the control or more as active, and values a quarter to a half above the control carry no call in these data; other NCI protocols may use other cut-offs. Some T/C values carry the count of animals alive at the toxicity check (mostly the fifth day); without a count, all were alive then.

For the compound `CCN(CC)CCCC(C)Nc1ccnc(/C=C/c2ccc(Cl)cc2)c1` (centres undefined), the survivor count under setting [1] was 10 of 10; the survivor count (dose: 110.0 mg/kg/injection, schedule: Q04DX003 (ip), vehicle: saline) was 8 of 10; the survivor count (dose: 170.0 mg/kg/injection, schedule: Q04DX003 (ip), vehicle: saline) is 2 of 10; the survivor count (dose: 255.0 mg/kg/injection, schedule: Q04DX003 (ip), vehicle: saline) is on record as 1 of 10.

`CC(NC1=NCCO1)c1cccc2ccccc12` (centres undefined): the T/C (dose: 12.5 mg/kg/injection, schedule: Q04DX003 (ip), vehicle: saline with Tween-80) is 143 % of control and the T/C (dose: 25.0 mg/kg/injection, schedule: Q04DX003 (ip), vehicle: saline with Tween-80) was 143 % of control.

Turning to `CCCCC#CCOCC(O)CCl` (centres undefined), the T/C (dose: 12.5 mg/kg/injection, schedule: Q01DX009 (ip), vehicle: saline with Tween-80) is 127 % of control. Besides, the survivor count by setting is: under setting [2], 10 of 10; under setting [1], 10 of 10; under setting [3], 10 of 10; (dose: 200.0 mg/kg/injection, schedule: Q01DX009 (ip), vehicle: Klucel (hydroxypropylcellulose) (HPC)) 10 of 10.

On to `C[C@@H]1O[C@@H](O[C@H]2CC[C@]3(C=O)[C@H]4CC[C@]5(C)[C@@H](c6ccc(=O)oc6)CC[C@]5(O)[C@@H]4CC[C@]3(O)C2)[C@H](O)[C@H](O)[C@H]1O[C@@H]1O[C@H](CO)[C@@H](O)[C@H](O)[C@H]1O`, for which, under “dose: 5.0 mg/kg/injection, schedule: Q01DX009 (ip), vehicle: saline”, the survivor count was 5 of 6.

Consider `CCC(=O)Oc1ccc(/C=N/NC(N)=S)nc1`, for which the T/C by setting is: under setting [4], 128 % of control; under setting [5], 133 % of control. Moreover, the survivor count reads like this: (dose: 200.0 mg/kg/injection, schedule: Q01DX009 (ip), vehicle: saline) 10 of 10; (dose: 400.0 mg/kg/injection, schedule: Q01DX009 (ip), vehicle: saline) 10 of 10.

With `N=C(N)SCCCCCCCCCCSC(=N)N`, the survivor count is, setting by setting: under setting [6], 9 of 10; under setting [7], 0 of 10.

Consider `O=C(O)c1c(Cl)cccc1Cl`, for which the survivor count reads like this: under setting [6], 10 of 10; (dose: 100.0 mg/kg/injection, schedule: Q04DX003 (ip), vehicle: saline with Tween-80) 10 of 10.

For `O=C(O)c1ccc2c(c1)C(=O)c1ccccc1S2(=O)=O`, the survivor count (dose: 400.0 mg/kg/injection, schedule: Q01DX009 (ip), vehicle: Klucel (hydroxypropylcellulose) (HPC)) is reported as 0 of 10.

Take `CCCCCCCCCC(=O)OC(C)C(=O)N(CCCC)CCCC` (centres undefined): the survivor count is, setting by setting: under setting [7], 10 of 10; (dose: 200.0 mg/kg/injection, schedule: Q01DX009 (ip), vehicle: saline with Tween-80) 10 of 10; (dose: 400.0 mg/kg/injection, schedule: Q01DX009 (ip), vehicle: saline with Tween-80) 10 of 10.

As to `Cc1c(Cl)cccc1NC(=O)Nc1ccccc1Cl`, the survivor count (dose: 300.0 mg/kg/injection, schedule: Q01DX009 (ip), vehicle: Klucel (hydroxypropylcellulose) (HPC)) is listed as 9 of 10.

On to `COc1ccc2cc3[n+](cc2c1OC)CCc1cc2c(cc1-3)OCO2`, for which the survivor count is, setting by setting: (dose: 0.75 mg/kg/injection, schedule: Q01DX009 (ip), vehicle: carboxymethylcellulose (CMC)) 10 of 10; (dose: 6.0 mg/kg/injection, schedule: Q01DX009 (ip), vehicle: carboxymethylcellulose (CMC)) 10 of 10; (dose: 10.0 mg/kg/injection, schedule: Q01DX009 (ip), vehicle: Klucel (hydroxypropylcellulose) (HPC)) 10 of 10; under setting [8], 8 of 10; (dose: 20.0 mg/kg/injection, schedule: Q01DX009 (ip), vehicle: Klucel (hydroxypropylcellulose) (HPC)) 9 of 10; (dose: 20.0 mg/kg/injection, schedule: Q02DX005 (ip), vehicle: Klucel (hydroxypropylcellulose) (HPC)) 10 of 10. Moreover, the survivor count under setting [2] is 6 of 10; the survivor count under setting [9] is on record as 1 of 10; the survivor count (dose: 40.0 mg/kg/injection, schedule: Q01DX009 (ip), vehicle: Klucel (hydroxypropylcellulose) (HPC)) is on record as 0 of 10; the survivor count (dose: 40.0 mg/kg/injection, schedule: Q02DX005 (ip), vehicle: Klucel (hydroxypropylcellulose) (HPC)) is listed as 4 of 10; the survivor count (dose: 50.0 mg/kg/injection, schedule: Q01DX009 (ip), vehicle: carboxymethylcellulose (CMC)) is 0 of 10. Moreover, the T/C by setting is: under setting [8], 136 % of control [9 of 10 alive]; under setting [9], 131 % of control.

Regarding `COc1ccc(C(N)=O)cc1N=NN(C)C`, the survivor count is 10 of 10 under setting [1]; 8 of 10 and 10 of 10 under setting [3].

Turning to `COc1cc(NCc2ccc3nc(N)nc(N)c3c2C)cc(OC)c1OC`, the T/C reads like this: (dose: 5.0 mg/kg/injection, schedule: Q01DX009 (ip), vehicle: sodium bicarbonate) 133 % of control; (dose: 10.0 mg/kg/injection, schedule: Q01DX009 (ip), vehicle: sodium bicarbonate) 128 % of control. The survivor count (dose: 40.0 mg/kg/injection, schedule: Q01DX009 (ip), vehicle: sodium bicarbonate) is 10 of 10.

In the case of `COc1ccccc1N1CCN(CCCC(=O)c2ccc(F)cc2)CC1`, the survivor count under setting [3] is reported as 10 of 10.

As for `NC1=NC(=S)C2N=C(N=Nc3ccc(C(=O)NC(CCC(=O)O)C(=O)O)cc3)N=C2N1` (centres undefined), the survivor count was 10 of 10 under setting [10]; 10 of 10 (dose: 6.25 mg/kg/injection, schedule: Q01DX009 (ip), vehicle: Klucel (hydroxypropylcellulose) (HPC)); 10 of 10 under setting [11]; 10 of 10 under setting [2]; 7 of 10 under setting [1]; 0 of 10 under setting [3].

Consider `CC(C)=CN1CCCCC1`, for which the survivor count under setting [6] is 10 of 10 and the survivor count under setting [7] was 10 of 10.

Take `COC(=O)[CH](C[N+](=O)[O-])[Hg][Cl]` (centres undefined): the survivor count (dose: 1.6 mg/kg/injection, schedule: Q01DX009 (ip), vehicle: saline with Tween-80) is recorded as 6 of 6; the survivor count under setting [4] is 10 of 10; the survivor count (dose: 50.0 mg/kg/injection, schedule: Q01DX009 (ip), vehicle: saline) is listed as 8 of 10; the survivor count (dose: 50.0 mg/kg/injection, schedule: Q04DX003 (ip), vehicle: Klucel (hydroxypropylcellulose) (HPC)) is given as 10 of 10; the survivor count under setting [5] is 6 of 10; the survivor count (dose: 100.0 mg/kg/injection, schedule: Q04DX003 (ip), vehicle: Klucel (hydroxypropylcellulose) (HPC)) was 10 of 10. In addition, the survivor count (dose: 200.0 mg/kg/injection, schedule: Q04DX003 (ip), vehicle: Klucel (hydroxypropylcellulose) (HPC)) was 0 of 10 and the survivor count (dose: 400.0 mg/kg/injection, schedule: Q04DX003 (ip), vehicle: Klucel (hydroxypropylcellulose) (HPC)) is recorded as 0 of 10.

For the compound `CCOC(=O)Oc1c(OC)cc(C(=O)O[C@@H]2C[C@@H]3CN4CCc5c([nH]c6cc(OC)ccc56)[C@H]4C[C@@H]3[C@H](C(=O)OC)[C@H]2OC)cc1OC`, the survivor count under setting [10] is given as 10 of 10, the survivor count under setting [11] was 9 of 10, the survivor count under setting [2] is on record as 10 of 10 and the survivor count under setting [1] is on record as 10 of 10.
